In patent US20260167712A1, “INHIBITORY ANTIBODIES AGAINST GLUT1” (ICOSAGEN CELL FACTORY OÜ, priority 2022, published 2026):
Positions count from the first letter of the chain named. These are yes or no findings as the source states them, for the method shown. Some results given as binding are weak or reduced against the parent protein; the word gives no strength.

Chains of the proteins cited; added tags and fusions are not shown.
UniProt P11166: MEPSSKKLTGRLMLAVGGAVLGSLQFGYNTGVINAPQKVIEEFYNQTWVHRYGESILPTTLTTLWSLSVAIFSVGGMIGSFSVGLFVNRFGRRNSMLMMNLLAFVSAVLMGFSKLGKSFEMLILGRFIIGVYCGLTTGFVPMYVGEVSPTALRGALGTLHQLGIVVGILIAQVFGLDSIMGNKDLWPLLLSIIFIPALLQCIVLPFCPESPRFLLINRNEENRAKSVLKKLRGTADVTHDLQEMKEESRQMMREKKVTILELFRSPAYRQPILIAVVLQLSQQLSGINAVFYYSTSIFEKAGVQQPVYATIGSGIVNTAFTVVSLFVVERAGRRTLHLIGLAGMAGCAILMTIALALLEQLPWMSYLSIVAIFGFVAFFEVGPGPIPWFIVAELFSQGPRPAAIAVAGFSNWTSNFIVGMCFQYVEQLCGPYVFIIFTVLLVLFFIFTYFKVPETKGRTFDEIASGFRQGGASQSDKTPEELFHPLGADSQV

B1: 1G2 #9 (antibody, V domains shown)
VH: AVTLDESGGGLQTPGGALSLVCKASGFTFSTKGMGWVRQTPGKGLEWVAGISSMRRYTYYAPAVKGRATISRDNGQSTVRLQLSSLRAEDSGTYYCARDATYCSWTTSTCGWSGGTIDAWGHGTEVIVSS
VL: ALTQPSSVSANPGETVKITCSGSSGSYGWYQQKSPGSAPVTVIYWDDERPSGIPSRFSGSASGSTATLTITGVQAEDEAVYFCGSIDSSVGYVGIFGAGTTLTVL
B2: 5G5 #30 (antibody, V domains shown)
VH: AVTLDESGGGLQTPGGALSLVCKASGFTFSSHAIFWVRQAPDKGLEFVAAISSSSGSWTAYATVVKGRATISRDNGQSTVRLQLNNLRAEDTGTYYCAKAAGSACCYAGSIDAWGHGTEVIVSS
VL: ALTQPSSVSANPGETVKITCSGGSGSSYYGWYQQKSPGSAPVTVIYYDDKRPSDIPSRFSGSKSGSTATLTITGVQVEDEAVYYCGTGDGSIAIFGAGTTLTVL
B3: 6F12 #33 (antibody, V domains shown)
VH: B2 VH with S31D, S54G, S55T, E90A, G93A, A100G
VL: B2 VL with G25S, V44L, D48N, I92F
B4: 7C3 #39 (antibody, V domains shown)
VH: B1 VH
VL: ALTQPSSVSANLGGTVKITCSGGGSSSYYGWYQQKSPGSAPVTVIYGNDRRPSDIPSRFSGSASGSTATLTITGVQAEDEAVYFCGSADSSDSGSGIFGAGTTLTVL
B5: 2A2 #12 (antibody, V domains shown)
VH: B1 VH with A24G, G35M, T40A, R55S, T78A, S91T, T107A
VL: ALTQPSSVSANPGETVKITCSGGYSYYGTYYYSWYQQKSPGSAPVTLIYRNDKRPSDIPSRFSGSGSGSTSTLTITGVQAEDEAVYFCGSYDSSDSGIFGAGTTLTVL
B6: 2E5 #22 (antibody, V domains shown)
VH: B1 VH
VL: ALTQPSSVSANLGGTVKITCSGGSGNYGWYQQKSPGSVPVTVIYSNDKRPSDIPSRFSGSGSGSTATLTITGVQVEDEAVYFCGSRDSSYVGLFGAGTTLTVL

target: SLC2A1 pseudotyped VLPs (UniProt P11166); assay: ELISA on coated SLC2A1 pseudotyped VLPs (FIG. 1 legend)

Row | Binder | binding
1 | B1 | binds
2 | B2 | binds
3 | B3 | binds
4 | B4 | binds
5 | B5 | binds
6 | B6 | binds

target: SLC2A1 pseudotyped VLPs (UniProt P11166); assay: ELISA on coated SLC2A1 pseudotyped VLPs

Row | Binder | binding
7 | B1 | binds
8 | B2 | binds
9 | B3 | binds
10 | B4 | binds
11 | B5 | binds
12 | B6 | binds
